In patent publication US20140065241A1, “USES OF (-)-PERHEXILINE” (Adelaide Research & Innovation Pty Ltd, priority 2012, published 2014):
Some of these results come from one statement about several compounds together.

System: CPT1
Experiment: In vitro CPT1 inhibition in liver and heart homogenates and purified mitochondrial fractions
Assay type: biochemical

SMILES	IC50 [µM]
C1CCC(C(CC2CCCCN2)C2CCCCC2)CC1 (single isomer, unassigned; (+)) [(+)-perhexyline, (+)-enantiomer of perhexyline]	50 to 60
C1CCC(C(CC2CCCCN2)C2CCCCC2)CC1 (single isomer, unassigned; (-)) [(−)-perhexyline, (−)-enantiomer of perhexyline]	50 to 60
